{"source": "PubChem BioAssay AID743454 (Peter MacCallum Cancer Centre, 2014)", "aim": "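Knock-downs lowering viability or raising caspase 3/7 activity in vorinostat-treated resistant cells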 (primary screen)", "system": "human HCT116-VR colon cancer cells, selected for vorinostat resistance", "knock-down reagent": "siRNA pool against human genes, 40 nM siRNA pool", "time to read-out": "vorinostat for 24 h, read-out about 72 h after transfection", "challenge": "vorinostat at 2.5 µM final", "detection": "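Cell viability by CellTiter-Fluor and caspase 3/7 activity by luminescence, each scaled to mock wells per plate, duplicates averaged, then robust z-scored over all plates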", "reading the numbers": "viability robust z-score: higher = more viable cells than screen typical; caspase robust z-score: higher = more caspase 3/7 activity than screen typical", "active means": "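Hits are knock-downs in viability class RV1/RV2 or caspase class CA1/CA2, excluding ones that killed cells in the no-drug cell-count arm; hits then retested with single siRNAs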", "note": "Shown is a random part of about 18,000 deposited reagents. In the full data, 450 (2.5%) got an active call. 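Single biological run; no consistent viability z cut-off exists, so the class columns, not z-scores, define the calls.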 A number with no mark means an inactive call."}
{"Gene": "ENTPD5 (ectonucleoside triphosphate diphosphohydrolase 5)", "viability hit class": "no change", "caspase hit class": "no change", "viability robust z-score": -0.77, "caspase robust z-score": -1.09}
{"Gene": "GOLT1A (golgi transport 1A)", "viability hit class": "no change", "caspase hit class": "no change", "viability robust z-score": -0.05, "caspase robust z-score": 0.15}
{"Gene": "WBP1L (WW domain binding protein 1 like)", "viability hit class": "no change", "caspase hit class": "no change", "viability robust z-score": -2.04, "caspase robust z-score": 2.29}
{"Gene": "TEX47 (testis expressed 47)", "viability hit class": "no change", "caspase hit class": "no change", "viability robust z-score": -0.42, "caspase robust z-score": -0.38}
{"Gene": "LAYN (layilin)", "viability hit class": "no change", "caspase hit class": "no change", "viability robust z-score": 1.4, "caspase robust z-score": -0.12}
{"Gene": "ENO3 (enolase 3)", "viability hit class": "no change", "caspase hit class": "no change", "viability robust z-score": 0.7, "caspase robust z-score": 0.07}
{"Gene": "LAMB4 (laminin subunit beta 4)", "viability hit class": "no change", "caspase hit class": "no change", "viability robust z-score": 0.38, "caspase robust z-score": -1.01}
{"Gene": "TSSC4 (tumor suppressing subtransferable candidate 4)", "viability hit class": "no change", "caspase hit class": "no change", "viability robust z-score": 0.39, "caspase robust z-score": -0.28}
{"Gene": "ARHGAP26 (Rho GTPase activating protein 26)", "viability hit class": "no change", "caspase hit class": "no change", "viability robust z-score": -1.63, "caspase robust z-score": 1.75}
{"Gene": "CYTH4 (cytohesin 4)", "viability hit class": "no change", "caspase hit class": "no change", "viability robust z-score": 0.86, "caspase robust z-score": -0.4}
{"Gene": "SLC35F6", "viability hit class": "no change", "caspase hit class": "no change", "viability robust z-score": -0.19, "caspase robust z-score": -0.85}
{"Gene": "EOLA2 (endothelium and lymphocyte associated ASCH domain 2)", "viability hit class": "no change", "caspase hit class": "no change", "viability robust z-score": 0.56, "caspase robust z-score": 2.06}
{"Gene": "MROH2B (maestro heat like repeat family member 2B)", "viability hit class": "no change", "caspase hit class": "no change", "viability robust z-score": 0.36, "caspase robust z-score": 4.51}
{"Gene": "TAF7L (TATA-box binding protein associated factor 7 like)", "viability hit class": "no change", "caspase hit class": "no change", "viability robust z-score": 0.7, "caspase robust z-score": 1.24}
{"Gene": "ZNF572 (zinc finger protein 572)", "viability hit class": "no change", "caspase hit class": "no change", "viability robust z-score": -0.57, "caspase robust z-score": -0.98}
{"Gene": "C10orf53 (chromosome 10 open reading frame 53)", "viability hit class": "no change", "caspase hit class": "no change", "viability robust z-score": 0.04, "caspase robust z-score": -0.75}
{"Gene": "SUMO2 (small ubiquitin like modifier 2)", "viability hit class": "no change", "caspase hit class": "no change", "viability robust z-score": 0.63, "caspase robust z-score": 1.15}
{"Gene": "PLS1 (plastin 1)", "viability hit class": "no change", "caspase hit class": "no change", "viability robust z-score": -1.31, "caspase robust z-score": 0.96}
{"Gene": "XAGE1B (X antigen family member 1B)", "viability hit class": "no change", "caspase hit class": "no change", "viability robust z-score": 0.28, "caspase robust z-score": -0.04}
{"Gene": "MBD6 (methyl-CpG binding domain protein 6)", "viability hit class": "no change", "caspase hit class": "no change", "viability robust z-score": 0.13, "caspase robust z-score": -0.8}
{"Gene": "MRTO4 (MRT4 homolog, ribosome maturation factor)", "viability hit class": "no change", "caspase hit class": "no change", "viability robust z-score": -1.4, "caspase robust z-score": 0.32}
